Test results reported in doi:10.1101/2021.04.23.441200.
These are yes or no findings as the source states them, for the method shown. Binding seen in cells or lysates may run through a third protein. A yes stands for co-enrichment or nearness to the bait. Other partners may have been found.

The chains behind the UniProt entries cited, without tags or fusion partners. Residues count along the entry.
UniProt P16070, residues 21-742: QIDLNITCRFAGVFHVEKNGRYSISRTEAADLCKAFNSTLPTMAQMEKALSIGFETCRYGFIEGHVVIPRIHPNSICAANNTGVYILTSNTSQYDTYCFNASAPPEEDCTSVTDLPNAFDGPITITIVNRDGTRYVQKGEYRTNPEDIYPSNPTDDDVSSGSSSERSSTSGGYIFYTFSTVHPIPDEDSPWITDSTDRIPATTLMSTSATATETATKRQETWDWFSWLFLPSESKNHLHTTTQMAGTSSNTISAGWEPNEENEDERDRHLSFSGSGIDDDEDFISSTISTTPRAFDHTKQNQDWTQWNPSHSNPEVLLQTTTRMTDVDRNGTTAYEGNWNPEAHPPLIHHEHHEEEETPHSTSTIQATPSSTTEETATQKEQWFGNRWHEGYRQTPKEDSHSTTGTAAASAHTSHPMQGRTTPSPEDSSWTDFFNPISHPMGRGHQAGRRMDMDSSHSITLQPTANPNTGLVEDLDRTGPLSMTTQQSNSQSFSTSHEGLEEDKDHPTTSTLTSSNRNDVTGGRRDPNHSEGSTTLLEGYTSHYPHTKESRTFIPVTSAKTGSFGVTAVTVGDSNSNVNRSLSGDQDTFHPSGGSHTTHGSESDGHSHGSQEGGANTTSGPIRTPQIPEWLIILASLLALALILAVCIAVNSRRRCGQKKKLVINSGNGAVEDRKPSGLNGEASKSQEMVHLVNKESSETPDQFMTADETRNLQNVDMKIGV
UniProt P63104: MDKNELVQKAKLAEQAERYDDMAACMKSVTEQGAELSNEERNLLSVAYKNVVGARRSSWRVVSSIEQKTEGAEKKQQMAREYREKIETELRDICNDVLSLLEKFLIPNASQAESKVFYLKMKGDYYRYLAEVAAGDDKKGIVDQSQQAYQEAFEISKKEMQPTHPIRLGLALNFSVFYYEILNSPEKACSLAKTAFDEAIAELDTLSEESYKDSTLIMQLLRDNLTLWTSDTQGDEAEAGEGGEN

Target: T1, BioID2-SEPT6 (mouse) (UniProt Q9R1T4)
T1 sequence: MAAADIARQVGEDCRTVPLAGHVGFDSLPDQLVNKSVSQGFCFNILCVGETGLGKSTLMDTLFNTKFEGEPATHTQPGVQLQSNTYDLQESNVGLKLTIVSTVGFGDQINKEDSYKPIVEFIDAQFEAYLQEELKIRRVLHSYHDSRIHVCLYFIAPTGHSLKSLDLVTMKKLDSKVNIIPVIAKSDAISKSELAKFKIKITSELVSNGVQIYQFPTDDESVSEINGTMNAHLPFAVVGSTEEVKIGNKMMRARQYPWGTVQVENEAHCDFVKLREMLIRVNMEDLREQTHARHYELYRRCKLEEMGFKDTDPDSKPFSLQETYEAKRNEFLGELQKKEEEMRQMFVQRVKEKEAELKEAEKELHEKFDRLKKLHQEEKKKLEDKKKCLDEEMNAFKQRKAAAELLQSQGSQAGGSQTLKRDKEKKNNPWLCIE
Assay: proximity labelling

| Substance | binding |
| --- | --- |
| CD44 (from UniProt P16070 21-742) (receptor) | binds |
| Notch (human (endogenous in melanoma cells)) (receptor) | binds |
| 14-3-3ζ (from UniProt P63104 1-245) | binds |
